From paper PMC7782499, “Progerinin, an optimized progerin-lamin A binding inhibitor, ameliorates premature senescence phenotypes of Hutchinson-Gilford progeria syndrome” (Communications Biology, 2021)
Values joined by “and” are separate entries in the source; they are usually repeats but may differ in a detail not shown here. Equal entries are not always repeated. This continues a long series; more values of the same kind are listed elsewhere.

System: Lmna G609G/+ mouse
Assay: Body weight of Lmna G609G/+ mice
Format: in vivo
Conditions: oral administration
Source text: Fig. 3 In vivo favorable effect of SLC-D011. A Gross morphology of Lmna^G609G/G609G mice (10 weeks old) was ameliorated after injection with SLC-D011. At the same age, the experimental group (D011) of mice were larger than vehicle-injected control (Con) subjects regardless of gender. B, C SLC-D011 increases body weight B and extends life span C of Lmna^G609G/G609G progeria model mouse (Con: n = 8; SLC-D011: n = 8). Compared with 14.8 weeks of average (ave) life span with maximum (max) life span of 15.5 weeks, 20 mg/kg of intraperitoneal (i.p) injection (twice a week) of SLC-D011 could extend the life span upto 19 weeks (max = 21 weeks). Lmna^G609G/G609G mice were injected with SLC-D011 from age of 5-week old, *p < 0.05. D Gross morphology of SLC-D011 injected Lmna^G609G/+ mouse. […] E SLC-D011 increases body weights of Lmna^G609G/+ mice (Con: n = 10; SLC-D011: n = 11), *p < 0.05. F Favorable effect of SLC-D011 on life span of Lmna^G609G/+ mice. Compared with vehicle-injected control group (ave = 46.7 weeks and max = 48 weeks), SLC-D011 treatment obviously extended the average life span to 63 weeks (max = 64 weeks). The injection was started from 32 weeks old, **p < 0.001. “Con” means vehicle (a solvent composed of DMSO and PBS)-injected mouse group. TEXT PRINTED IN THE PICTURE: (C) D011: Kaplan-Meier survival curve in Lmna^G609G/G609G: Ave=19; Kaplan-Meier survival curve in Lmna^G609G/G609G: Max=21 | (F) D011: Kaplan-Meier survival curve in Lmna^G609G/+: Ave=63; Kaplan-Meier survival curve in Lmna^G609G/+: Max=64 DOUBTS OF THE COPYIST ABOUT THIS PICTURE: Panels C and F: the Ave/Max labels are not printed with a group name. They are assigned to D011 (solid curve) or Con (dashed curve) only by their position beside the curves. / Panel C Ave=14.8, Max=15.5 and panel F Ave=46.7, Max=48 stand beside the dashed Con curve. They are left out because Con is the control group, not a substance. / No unit is printed with the Ave/Max values. Only the axis reads Age (weeks).
Animal experiments were performed in a facility certified by the Association for Assessment and Accreditation of Laboratory Animal Care in compliance with animal policies approved by Pusan National University. The mouse work was performed under the study protocol PNU-2019-2181, as approved by the Institutional Animal Care and Use Committee. Lmna^G609G/609G mice were generated by timed mating of heterozygous Lmna^G609G/+ provided by Carlos López-Otín (Universidad de Oviedo, Asturias, Oviedo, Spain). SLC-D011 was mixed with dimethyl sulfoxide (DMSO) and phosphate-buffered saline (PBS). It was then intraperitoneally injected into mice (20 mg/kg twice per week from 5-week-old). SLC-D011 and lonafarnib were orally administrated to mice daily at a concentration of 10 mg/ml in monoolein-based solution. Lonafarnib was generously provided by Merck, the Progeria Research Foundation (PRF) and the PRF Lonafarnib Pre-clinical Drug Supply Program. Control mice were treated with monoolein-based solution alone in the same way. Lmna^G609G/609G mice were treated with clear chemical solution throughout the life span, starting from 5 weeks of age. Lmna^G609G/+ mice were treated via intraperitoneal and oral administrations, starting from 32 weeks of age.
Fig. S10. Or al administration of SLC-D011 suppresses premature aging features of LmnaG609G/+ mi c e . A.
Gross morphology of SLC-D011 treated Lmna G609G/+ mice at 36 weeks old. B. Oral administration of SLC-
D011 increases body weight s of LmnaG609G/+ mi c e (untreated: n=11; SLC-D011: n=12), * p<0.05. C. […]
intensity of H3K9me3 levels in lung, liver, and kidney tissues of age-matched Lmn a +/+ mouse, untreated
LamnG609G/+ mouse and two progerinin- treated LmnaG609G/+ mice (n = 2 independent experiments; one
Student’s t -test), **p < 0.001,*p< 0.05, N.S: not significant .AU, arbitrary units.
Fig. S12. […] A. SLC-D011, compar ed to lonafarnib, reduces […]

With `CC1(C)Oc2cc3oc(=O)ccc3cc2C[C@@H]1OC/C=C/c1ccccc1` [SLC-D011] the “Lmna G609G/+ body weight” value (week 36, Ave) was 1, the “Lmna G609G/+ body weight” value (week 36, individual mouse) was 1 and the “Lmna G609G/+ body weight” value (week 36, individual mouse, relative body weight) was 1. The “Lmna G609G/+ body weight” value (week 37, Ave) was 1.027, the “Lmna G609G/+ body weight” value (week 37, individual mouse) was 0.9545 and 1 and 1.053 and 1.105 and the “Lmna G609G/+ body weight” value (week 38, Ave) was 1.017. The “Lmna G609G/+ body weight” value (week 38, individual mouse) was 0.9545 and 0.9565 and 1.053 and 1.043 and 1, the “Lmna G609G/+ body weight” value (week 38, individual mouse, relative body weight) was 0.9545 and 0.9565 and 1.053 and 1.043 and 1 and the “Lmna G609G/+ body weight” value (week 39, Ave) was 1.053. The “Lmna G609G/+ body weight” value (week 39, individual mouse) was 1.045 and 1.043 and 1.053 and 1.087 and 1, the “Lmna G609G/+ body weight” value (week 40, Ave) was 1.063 and the “Lmna G609G/+ body weight” value (week 40, individual mouse) was 1 and 1.043 and 1.105 and 1.087 and 1.053. The “Lmna G609G/+ body weight” value (week 40, individual mouse, relative body weight) was 1 and 1.043 and 1.105 and 1.087 and 1.053, the “Lmna G609G/+ body weight” value (week 41, Ave) was 1.0252 and the “Lmna G609G/+ body weight” value (week 41, individual mouse) was 1 and 1.043 and 1.087 and 0.9545. For the same compound, the “Lmna G609G/+ body weight” value (week 42, Ave) was 0.9995, the “Lmna G609G/+ body weight” value (week 42, individual mouse) was 0.9545 and 1 and 1.043 and the “Lmna G609G/+ body weight” value (week 42, individual mouse, relative body weight) was 0.9545 and 1 and 1.043. The “Lmna G609G/+ body weight” value (week 43, Ave) was 0.9538, the “Lmna G609G/+ body weight” value (week 43, individual mouse) was 0.9091 and 0.9565 and 0.9474 and 1 and 0.9545 and 0.9615 and the “Lmna G609G/+ body weight” value (week 44, Ave) was 0.9298. For the same compound, the “Lmna G609G/+ body weight” value (week 44, individual mouse) was 0.9091 and 0.913 and 0.8947 and 1 and 0.9545 and 0.9615, the “Lmna G609G/+ body weight” value (week 44, individual mouse, relative body weight) was 0.9091 and 0.913 and 0.8947 and 1 and 0.9545 and 0.9615 and the “Lmna G609G/+ body weight” value (week 45, Ave) was 0.9156. The “Lmna G609G/+ body weight” value (week 45, individual mouse) was 0.8636 and 0.913 and 0.8947 and 0.9565 and 0.8696 and 0.9615, the “Lmna G609G/+ body weight” value (week 46, Ave) was 0.9013 and the “Lmna G609G/+ body weight” value (week 46, individual mouse) was 0.9091 and 0.8696 and 0.8947 and 0.913 and 0.9565 and 0.9615. For the same compound, the “Lmna G609G/+ body weight” value (week 46, individual mouse, relative body weight) was 0.9091 and 0.8696 and 0.8947 and 0.913 and 0.9565 and 0.9615, the “Lmna G609G/+ body weight” value (week 47, Ave) was 0.8765 and the “Lmna G609G/+ body weight” value (week 47, individual mouse) was 0.8182 and 0.8696 and 0.8421 and 0.913 and 0.9565. The “Lmna G609G/+ body weight” value (week 48, Ave) was 0.862, the “Lmna G609G/+ body weight” value (week 48, individual mouse) was 0.8182 and 0.8261 and 0.8421 and 0.913 and 0.8696 and 0.9565 and the “Lmna G609G/+ body weight” value (week 48, individual mouse, relative body weight) was 0.8182 and 0.8261 and 0.8421 and 0.913 and 0.8696 and 0.9565. For the same compound, the “Lmna G609G/+ body weight” value (week 49, Ave) was 0.8548, the “Lmna G609G/+ body weight” value (week 49, individual mouse) was 0.8182 and 0.8261 and 0.8421 and 0.8696 and 0.9565 and the “Lmna G609G/+ body weight” value (week 50, Ave) was 0.8331. The “Lmna G609G/+ body weight” value (week 50, individual mouse) was 0.8182 and 0.7826 and 0.8421 and 0.8696 and 0.8261, the “Lmna G609G/+ body weight” value (week 50, individual mouse, relative body weight) was 0.8182 and 0.7826 and 0.8421 and 0.8696 and 0.8261 and the “Lmna G609G/+ body weight” value (week 51, Ave) was 0.8094. The “Lmna G609G/+ body weight” value (week 51, individual mouse) was 0.7727 and 0.7826 and 0.7895 and 0.8696 and 0.8261, the “Lmna G609G/+ body weight” value (week 52, Ave) was 0.7877 and the “Lmna G609G/+ body weight” value (week 52, individual mouse) was 0.7727 and 0.7391 and 0.7895 and 0.8261. For the same compound, the “Lmna G609G/+ body weight” value (week 52, individual mouse, relative body weight) was 0.7727 and 0.7391 and 0.7895 and 0.8261, the “Lmna G609G/+ body weight” value (week 53, Ave) was 0.7913 and the “Lmna G609G/+ body weight” value (week 53, individual mouse) was 0.7727 and 0.7391 and 0.7895 and 0.8261 and 0.7826. For the same compound, the “Lmna G609G/+ body weight” value (week 54, Ave) was 0.7841, the “Lmna G609G/+ body weight” value (week 54, individual mouse) was 0.7727 and 0.7391 and 0.7895 and 0.8261 and 0.7826 and the “Lmna G609G/+ body weight” value (week 54, individual mouse, relative body weight) was 0.7727 and 0.7391 and 0.7895 and 0.8261 and 0.7826. For the same compound, the “Lmna G609G/+ body weight” value (week 55, Ave) was 0.748 and the “Lmna G609G/+ body weight” value (week 55, individual mouse) was 0.7273 and 0.7391 and 0.7368 and 0.7826 and 0.7895.
